This passage reports binding results from doi:10.1101/2025.11.21.689678 (bioRxiv, 2025).

Sequences of proteins named here, by UniProt entry; tags and fusion partners are left off. A change or cut given only in a name is not applied to a line headed by its entry.
UniProt Q13263: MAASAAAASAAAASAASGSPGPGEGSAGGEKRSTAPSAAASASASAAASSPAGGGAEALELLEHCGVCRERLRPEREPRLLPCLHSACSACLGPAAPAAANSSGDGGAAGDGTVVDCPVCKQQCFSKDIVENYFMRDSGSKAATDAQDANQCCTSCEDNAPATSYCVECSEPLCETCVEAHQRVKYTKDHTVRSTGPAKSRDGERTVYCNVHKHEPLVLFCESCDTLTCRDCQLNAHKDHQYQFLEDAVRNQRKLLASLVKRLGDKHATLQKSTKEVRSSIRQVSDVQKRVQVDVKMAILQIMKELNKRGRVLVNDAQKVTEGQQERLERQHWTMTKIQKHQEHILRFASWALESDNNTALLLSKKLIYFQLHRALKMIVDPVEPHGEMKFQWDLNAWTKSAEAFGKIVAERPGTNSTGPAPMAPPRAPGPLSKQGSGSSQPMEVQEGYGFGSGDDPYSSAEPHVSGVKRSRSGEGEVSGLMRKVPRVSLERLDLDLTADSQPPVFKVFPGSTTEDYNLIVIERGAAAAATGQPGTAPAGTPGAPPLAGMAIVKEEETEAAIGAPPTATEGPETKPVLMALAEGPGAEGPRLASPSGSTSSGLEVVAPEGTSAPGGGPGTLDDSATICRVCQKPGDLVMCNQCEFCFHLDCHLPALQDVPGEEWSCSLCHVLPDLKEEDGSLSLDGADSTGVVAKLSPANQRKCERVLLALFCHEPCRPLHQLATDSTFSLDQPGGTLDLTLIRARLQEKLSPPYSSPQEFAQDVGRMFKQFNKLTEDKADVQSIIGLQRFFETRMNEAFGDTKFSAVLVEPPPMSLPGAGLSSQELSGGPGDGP
UniProt P43360: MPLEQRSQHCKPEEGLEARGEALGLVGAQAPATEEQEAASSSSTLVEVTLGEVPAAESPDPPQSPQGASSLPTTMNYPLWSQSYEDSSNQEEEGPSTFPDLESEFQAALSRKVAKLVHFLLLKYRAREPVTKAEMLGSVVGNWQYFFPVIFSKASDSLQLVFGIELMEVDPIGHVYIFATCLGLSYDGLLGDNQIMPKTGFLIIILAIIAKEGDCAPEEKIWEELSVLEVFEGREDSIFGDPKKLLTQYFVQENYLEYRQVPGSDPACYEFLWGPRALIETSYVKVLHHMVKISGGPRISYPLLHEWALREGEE
UniProt P28074: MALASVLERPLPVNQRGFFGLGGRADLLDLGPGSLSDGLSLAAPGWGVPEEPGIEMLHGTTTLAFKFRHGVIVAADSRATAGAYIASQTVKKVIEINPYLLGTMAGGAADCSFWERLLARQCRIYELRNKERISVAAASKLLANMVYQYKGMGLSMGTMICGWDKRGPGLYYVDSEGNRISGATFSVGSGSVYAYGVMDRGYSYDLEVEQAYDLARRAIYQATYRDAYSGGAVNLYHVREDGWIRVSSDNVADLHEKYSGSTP

Results are given in words; binding and its absence hold for the method and conditions named. In cells and extracts the contact can be indirect. A result given as binding can be weak or reduced; the word gives no strength. For some assays here: Tags and fused reporters may be left off the sequences shown.

What all share (assay): co-IP
In experiment [1] the target is Flag-TRIM28 (H1299) (human) (UniProt Q13263).
The target of experiment [2] is Flag-MAGEA6 MutB (human (cDNA from H1299 cells)) (UniProt P43360).
In experiment [3] the target is Flag-TRIM28 (HEK293T) (human) (UniProt Q13263).
Experiment [4] has as its target Flag-MAGEA6 MutA (human (cDNA from H1299 cells)) (UniProt P43360).

Regarding “endogenous PSMB5 (H1299) (from UniProt P28074)”, in experiment [1], the binding result is “binds”. As to “endogenous TRIM28 (HEK293T) (from UniProt Q13263 1-835)”, the binding result in experiment [2] is “binds”. For the molecule “endogenous PSMB5 (HEK293T) (from UniProt P28074)”, the binding entry in experiment [3] is “binds”.

B1: HA-ALKBH2 (HEK293T) (protein, UniProt Q6NS38 1-261)
chain: MDRFLVKGAQGGLLRKQEEQEPTGEEPAVLGGDKESTRKRPRREAPGNGGHSAGPSWRHIRAEGLDCSYTVLFGKAEADEIFQELEKEVEYFTGALARVQVFGKWHSVPRKQATYGDAGLTYTFSGLTLSPKPWIPVLERIRDHVSGVTGQTFNFVLINRYKDGCDHIGEHRDDERELAPGSPIASVSFGACRDFVFRHKDSRGKSPSRRVAVVRLPLAHGSLLMMNHPTNTHWYHSLPVRKKVLAPRVNLTFRKILLTKK
Consider B1, for which the binding entry in experiment [4] and in experiment [2] was “binds” each time.
